Data on 15 compounds can be found in patent US20230037188A1, “TASTEFUL NATURAL SWEETENER AND FLAVOR” (EPC Natural Products Co., Ltd., priority 2018, published 2023).

The data set is described as follows: Sensory analysis (odor, color, taste) of model Maillard reactions in glycerol, buffer or dry conditions. It is filed as in vivo, persons. Also noted: key to Intensity of Smell: “+” for slight; “++” for moderate; “+++” for very strong.
[1] abbreviates: Example 5: 1 ml water + 9 ml Glycerin, 2.0 h, 120° C.
[2] abbreviates: Example 3: 1 ml water + 9 ml Glycerin, 0.67 h, 100° C.
Where [3] appears, read: Example 6: Glycerin, 10 ml, 100° C., 5 min (time by order of lines).
[4] abbreviates: Example 6: Glycerin, 10 ml, 100° C., 10 min (time by order of lines).
Where [5] appears, read: Example 6: Glycerin, 10 ml, 100° C., 20 min (time by order of lines).
Where [6] appears, read: Example 6: Glycerin, 10 ml, 100° C., 40 min (time by order of lines).
Where [7] appears, read: Example 7: Glycerin, 10 ml, 1 h, 120° C.
The mark [8] stands for this setting: negative controls (no carbohydrate source): 10 ml glycerin/water=9:1, 100° C., 40 minutes.
The mark [9] stands for this setting: after reaction, 10 ml KH2PO4, pH 7.8, 2.5 h, 120° C., SG fractions of Example 36.
[10] abbreviates: before reaction, 10 ml KH2PO4, pH 7.8, glucuronic acid/glucuronolactone study.
[11] abbreviates: Example 1: 1 ml water + 9 ml Glycerin, 1 h, 100° C.
Setting [12] is: after reaction, 10 ml KH2PO4, pH 7.8, 2.5 h, 120° C., glucuronic acid/glucuronolactone study.

`O=C(O)[C@H](O)[C@@H](O)[C@H](O)[C@H](O)CO` [0.1 mMol Gluc Acid]: under setting [1], the Color entry was “Almost black”, the “Intensity of Smell” value is given as “+++”, the Smell result is reported as “burnt bread” and the Taste entry is “Bitter”.

In the case of `NCCCC[C@H](N)C(=O)O` [0.1 mMol Lys], under setting [2], the Color entry is on record as “Brown”, the Smell entry is recorded as “Popcorn” and the Taste result was “Sweet”.

For the compound `N[C@@H](Cc1ccccc1)C(=O)O` [3.3 mMol Phe], the Color entry is, setting by setting: under setting [3], “No color”; under setting [4], “No color”; under setting [5], “Slightly Yellow”; under setting [6], “Yellow-slightly brown”. Further, the Smell result runs as follows: under setting [3], “Slightly bloomy”; under setting [4], “flowery/bloomy”; under setting [5], “flowery/bloomy”; under setting [6], “flowery/bloomy”.

Regarding `OC[C@H]1OC(O)[C@H](O)[C@@H](O)[C@@H]1O` (stereo partly drawn) [10 mMol Glu], under setting [6], the Color entry is recorded as “Slightly Yellow” and the Smell entry is “Slightly Caramel”.

As for `OC1OC[C@@H](O)[C@H](O)[C@H]1O` (stereo partly drawn) [10 mMol Xyl], under setting [7], the Color result is on record as “No color” and the Smell result is recorded as “neutral”.

Turning to `OC1OC[C@@H](O)[C@H](O)[C@H]1O` (stereo partly drawn) [10 mmol Xyl], under setting [6], the Color entry is listed as “Slightly Yellow” and the Smell entry is “Slightly Popcorn”.

For the compound `N[C@@H](CC(=O)O)C(=O)O` [13.3 mg Asp], under setting [8], the Color result is on record as “No color”, the Smell entry was “Unpleasant (plastic)” and the Taste entry is “Slightly sweet”.

With `NCCCC[C@H](N)C(=O)O` [14.7 mg Lys], under setting [8], the Color result was “brown”, the Smell result is listed as “Popcorn” and the Taste result is given as “Slightly sweet”.

On to `N[C@@H](Cc1ccccc1)C(=O)O` [16.5 mg Phe], for which the Taste entry reads like this: (after reaction (2.5 h, 120° C.), after dilution 1:20, SG fractions of Example 36) “Sweet”; under setting [10], “No taste”; (before reaction, after dilution 1:20, SG fractions of Example 36) “No taste”. Besides, under setting [9], the Color result was “Slightly”. Moreover, the Smell result is on record as “Caramel” under setting [9]; “Neutral” (before reaction, 10 ml KH2PO4, pH 7.8, Stevia extract (SG fractions) of Example 36); “neutral” under setting [10].

For the compound `O=C1O[C@@H]2[C@@H](O)[C@H](O)O[C@@H]2C1O` (stereo partly drawn) [18 mg Glucurolactone], under setting [10], the Color result is “No color”, the Smell entry is recorded as “neutral” and the Taste result was “No taste”.

In the case of `O=C[C@H](O)[C@@H](O)[C@H](O)[C@H](O)C(=O)O` [18 mg Glucuronic Acid], under setting [10], the Color entry was “No color”, the Smell entry was “neutral” and the Taste entry is given as “No taste”.

Take `N[C@@H](Cc1c[nH]c2ccccc12)C(=O)O` [20.42 mg Try]: under setting [8], the Color result is recorded as “Slightly Yellow”, the Smell result is recorded as “Unpleasant (fecal)” and the Taste result is recorded as “Slightly sweet”.

As for `OC1OC[C@@H](O)[C@H](O)[C@H]1O` (stereo partly drawn) [167 mMol Xyl], under setting [11], the Color entry is “No color”, the Smell entry is listed as “neutral/meat” and the Taste entry is recorded as “Sweet”.

Take `OC[C@H]1OC(O)[C@H](O)[C@@H](O)[C@@H]1O` (stereo partly drawn) [Glu]: under setting [12], the Color result is reported as “Deep Yellow”, the Smell result was “Burnt sugar” and the Taste entry is “Sweet/bitter”.

Consider `O=C[C@H](O)[C@@H](O)[C@H](O)[C@H](O)C(=O)O` [Glucuronic Acid], for which, under setting [12], the Smell entry is listed as “burnt bread” and the Taste result is given as “Bitter”.
